The values below come from the supplement of paper PMC12067093, “Discovery and optimisation of a covalent ligand for TRIM25 and its application to targeted protein ubiquitination” (Chemical Science, 2025).

Chains of the proteins cited; added tags and fusions are not shown. Lines headed by an entry give the natural chain unless they say otherwise; changes in a name come on top.
UniProt Q92974: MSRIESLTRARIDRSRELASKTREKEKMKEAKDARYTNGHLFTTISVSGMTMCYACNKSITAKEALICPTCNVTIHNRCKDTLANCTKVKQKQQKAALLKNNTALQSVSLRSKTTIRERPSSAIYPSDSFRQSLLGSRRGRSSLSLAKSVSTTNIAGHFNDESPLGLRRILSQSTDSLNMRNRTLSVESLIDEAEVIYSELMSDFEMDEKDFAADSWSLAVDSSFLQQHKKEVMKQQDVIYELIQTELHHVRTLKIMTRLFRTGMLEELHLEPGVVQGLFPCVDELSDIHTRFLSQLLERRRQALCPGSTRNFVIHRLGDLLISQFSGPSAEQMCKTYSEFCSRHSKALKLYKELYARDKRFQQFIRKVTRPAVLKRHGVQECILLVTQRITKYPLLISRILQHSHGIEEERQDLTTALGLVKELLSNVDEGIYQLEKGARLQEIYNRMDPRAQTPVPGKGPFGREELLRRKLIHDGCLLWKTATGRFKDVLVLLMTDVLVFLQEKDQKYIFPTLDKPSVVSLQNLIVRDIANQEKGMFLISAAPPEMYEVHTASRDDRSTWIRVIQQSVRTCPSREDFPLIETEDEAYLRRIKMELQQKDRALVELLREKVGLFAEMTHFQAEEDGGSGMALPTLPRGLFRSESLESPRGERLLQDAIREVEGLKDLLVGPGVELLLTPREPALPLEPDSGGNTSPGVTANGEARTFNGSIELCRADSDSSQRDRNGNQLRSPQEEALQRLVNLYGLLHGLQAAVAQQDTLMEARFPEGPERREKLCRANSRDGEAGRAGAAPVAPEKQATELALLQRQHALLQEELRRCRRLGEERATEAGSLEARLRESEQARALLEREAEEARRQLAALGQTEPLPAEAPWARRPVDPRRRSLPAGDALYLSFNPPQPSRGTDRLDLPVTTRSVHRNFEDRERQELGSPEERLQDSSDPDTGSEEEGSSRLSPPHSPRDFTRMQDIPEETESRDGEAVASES
UniProt O95376: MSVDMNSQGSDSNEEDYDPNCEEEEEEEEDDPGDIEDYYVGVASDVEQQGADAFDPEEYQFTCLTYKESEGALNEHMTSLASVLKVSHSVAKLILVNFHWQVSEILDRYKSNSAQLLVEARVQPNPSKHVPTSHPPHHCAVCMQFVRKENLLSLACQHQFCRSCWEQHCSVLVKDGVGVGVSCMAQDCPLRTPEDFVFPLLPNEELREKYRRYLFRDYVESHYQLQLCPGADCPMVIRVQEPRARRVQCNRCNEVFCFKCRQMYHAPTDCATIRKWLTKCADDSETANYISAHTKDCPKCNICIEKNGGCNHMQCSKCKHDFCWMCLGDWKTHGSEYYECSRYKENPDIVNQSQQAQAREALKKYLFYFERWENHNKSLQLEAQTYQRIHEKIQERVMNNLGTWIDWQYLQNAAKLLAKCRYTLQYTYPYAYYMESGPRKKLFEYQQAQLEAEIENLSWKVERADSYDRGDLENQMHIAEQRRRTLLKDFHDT
UniProt Q68EM7: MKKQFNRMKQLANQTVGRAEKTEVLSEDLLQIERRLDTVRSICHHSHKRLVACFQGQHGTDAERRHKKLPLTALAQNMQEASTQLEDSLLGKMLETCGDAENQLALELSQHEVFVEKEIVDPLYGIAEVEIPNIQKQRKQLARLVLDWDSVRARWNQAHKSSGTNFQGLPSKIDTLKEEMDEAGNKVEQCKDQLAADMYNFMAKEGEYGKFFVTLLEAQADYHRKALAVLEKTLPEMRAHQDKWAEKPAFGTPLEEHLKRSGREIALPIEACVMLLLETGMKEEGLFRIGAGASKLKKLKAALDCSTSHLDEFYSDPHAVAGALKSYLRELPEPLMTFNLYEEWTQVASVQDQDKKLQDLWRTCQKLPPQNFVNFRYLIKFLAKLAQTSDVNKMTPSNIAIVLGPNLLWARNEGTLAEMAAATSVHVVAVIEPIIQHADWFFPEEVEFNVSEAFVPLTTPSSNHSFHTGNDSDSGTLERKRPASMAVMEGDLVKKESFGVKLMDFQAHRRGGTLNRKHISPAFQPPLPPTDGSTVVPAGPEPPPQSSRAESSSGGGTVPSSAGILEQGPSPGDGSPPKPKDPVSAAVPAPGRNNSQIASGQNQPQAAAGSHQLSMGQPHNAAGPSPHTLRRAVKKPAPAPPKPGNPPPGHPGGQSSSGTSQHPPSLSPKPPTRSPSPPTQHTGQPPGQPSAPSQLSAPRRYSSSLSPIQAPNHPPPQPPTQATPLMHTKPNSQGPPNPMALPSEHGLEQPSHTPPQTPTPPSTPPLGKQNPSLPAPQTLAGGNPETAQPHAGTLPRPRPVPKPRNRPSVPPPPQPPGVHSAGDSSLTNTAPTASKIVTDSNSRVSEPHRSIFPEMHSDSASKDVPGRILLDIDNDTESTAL
UniProt Q92619: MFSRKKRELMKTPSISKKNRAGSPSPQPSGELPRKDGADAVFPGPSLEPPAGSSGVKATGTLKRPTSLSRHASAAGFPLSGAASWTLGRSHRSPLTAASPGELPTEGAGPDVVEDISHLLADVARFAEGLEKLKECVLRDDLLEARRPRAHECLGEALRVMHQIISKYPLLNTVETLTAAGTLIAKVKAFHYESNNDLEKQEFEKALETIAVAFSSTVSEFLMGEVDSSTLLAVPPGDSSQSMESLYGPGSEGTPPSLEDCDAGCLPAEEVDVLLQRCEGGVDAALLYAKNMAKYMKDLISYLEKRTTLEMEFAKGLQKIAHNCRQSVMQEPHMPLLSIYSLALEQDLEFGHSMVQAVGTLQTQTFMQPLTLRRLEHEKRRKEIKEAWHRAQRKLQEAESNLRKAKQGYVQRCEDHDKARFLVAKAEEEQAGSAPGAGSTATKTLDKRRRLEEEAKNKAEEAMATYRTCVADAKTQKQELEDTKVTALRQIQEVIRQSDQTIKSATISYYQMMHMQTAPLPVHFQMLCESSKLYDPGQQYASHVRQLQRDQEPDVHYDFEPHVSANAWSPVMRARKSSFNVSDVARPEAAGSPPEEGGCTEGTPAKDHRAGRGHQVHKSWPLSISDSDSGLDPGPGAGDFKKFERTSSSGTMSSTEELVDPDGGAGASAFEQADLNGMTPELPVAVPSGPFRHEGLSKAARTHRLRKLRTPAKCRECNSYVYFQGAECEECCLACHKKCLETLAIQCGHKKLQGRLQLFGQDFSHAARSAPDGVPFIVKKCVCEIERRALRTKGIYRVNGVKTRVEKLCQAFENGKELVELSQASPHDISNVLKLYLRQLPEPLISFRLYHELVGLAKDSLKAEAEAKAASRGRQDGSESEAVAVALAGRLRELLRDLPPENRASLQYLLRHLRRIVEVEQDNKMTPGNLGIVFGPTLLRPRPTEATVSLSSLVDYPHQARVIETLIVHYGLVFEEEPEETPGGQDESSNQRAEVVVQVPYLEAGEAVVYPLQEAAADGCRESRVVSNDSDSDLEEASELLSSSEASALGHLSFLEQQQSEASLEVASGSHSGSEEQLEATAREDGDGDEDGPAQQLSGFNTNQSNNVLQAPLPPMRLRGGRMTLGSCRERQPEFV
UniProt Q9UKG1: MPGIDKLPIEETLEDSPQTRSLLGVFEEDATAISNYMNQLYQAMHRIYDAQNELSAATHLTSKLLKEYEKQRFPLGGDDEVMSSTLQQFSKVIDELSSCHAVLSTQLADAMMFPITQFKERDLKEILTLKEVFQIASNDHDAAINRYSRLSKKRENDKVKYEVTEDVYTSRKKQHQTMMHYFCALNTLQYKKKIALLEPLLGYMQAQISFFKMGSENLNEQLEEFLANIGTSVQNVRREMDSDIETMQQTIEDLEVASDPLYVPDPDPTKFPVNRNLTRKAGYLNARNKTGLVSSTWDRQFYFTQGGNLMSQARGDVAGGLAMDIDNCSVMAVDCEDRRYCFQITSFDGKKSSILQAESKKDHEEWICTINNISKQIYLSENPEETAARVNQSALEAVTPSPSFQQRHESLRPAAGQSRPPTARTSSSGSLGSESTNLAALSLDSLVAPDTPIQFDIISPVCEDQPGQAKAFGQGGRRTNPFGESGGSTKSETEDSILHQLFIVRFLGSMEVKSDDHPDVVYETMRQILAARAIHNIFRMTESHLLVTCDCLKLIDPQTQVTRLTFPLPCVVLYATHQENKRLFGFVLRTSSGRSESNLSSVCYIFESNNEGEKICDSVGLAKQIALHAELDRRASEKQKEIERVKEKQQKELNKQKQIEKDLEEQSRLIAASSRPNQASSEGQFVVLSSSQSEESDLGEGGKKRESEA
UniProt Q15052: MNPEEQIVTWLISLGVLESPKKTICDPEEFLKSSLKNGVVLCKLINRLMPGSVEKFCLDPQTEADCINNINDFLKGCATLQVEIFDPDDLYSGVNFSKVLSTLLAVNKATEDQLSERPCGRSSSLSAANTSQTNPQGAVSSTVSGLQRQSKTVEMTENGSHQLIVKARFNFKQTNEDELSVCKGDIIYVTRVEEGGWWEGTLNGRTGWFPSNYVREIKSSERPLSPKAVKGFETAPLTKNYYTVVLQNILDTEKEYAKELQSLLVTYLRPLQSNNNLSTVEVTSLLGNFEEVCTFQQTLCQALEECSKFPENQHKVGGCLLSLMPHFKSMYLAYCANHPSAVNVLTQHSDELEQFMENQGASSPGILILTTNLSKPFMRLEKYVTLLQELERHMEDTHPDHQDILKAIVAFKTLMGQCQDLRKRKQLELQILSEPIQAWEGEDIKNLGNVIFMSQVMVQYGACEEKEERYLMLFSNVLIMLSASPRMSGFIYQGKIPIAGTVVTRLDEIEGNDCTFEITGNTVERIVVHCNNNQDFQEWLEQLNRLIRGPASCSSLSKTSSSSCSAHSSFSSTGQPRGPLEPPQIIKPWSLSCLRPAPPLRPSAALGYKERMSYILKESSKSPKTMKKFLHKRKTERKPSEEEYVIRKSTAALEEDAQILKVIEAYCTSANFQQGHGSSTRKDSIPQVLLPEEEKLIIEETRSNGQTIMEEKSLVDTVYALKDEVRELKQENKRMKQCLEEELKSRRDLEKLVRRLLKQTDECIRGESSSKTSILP
UniProt Q8IUR7, whole entry, looked up: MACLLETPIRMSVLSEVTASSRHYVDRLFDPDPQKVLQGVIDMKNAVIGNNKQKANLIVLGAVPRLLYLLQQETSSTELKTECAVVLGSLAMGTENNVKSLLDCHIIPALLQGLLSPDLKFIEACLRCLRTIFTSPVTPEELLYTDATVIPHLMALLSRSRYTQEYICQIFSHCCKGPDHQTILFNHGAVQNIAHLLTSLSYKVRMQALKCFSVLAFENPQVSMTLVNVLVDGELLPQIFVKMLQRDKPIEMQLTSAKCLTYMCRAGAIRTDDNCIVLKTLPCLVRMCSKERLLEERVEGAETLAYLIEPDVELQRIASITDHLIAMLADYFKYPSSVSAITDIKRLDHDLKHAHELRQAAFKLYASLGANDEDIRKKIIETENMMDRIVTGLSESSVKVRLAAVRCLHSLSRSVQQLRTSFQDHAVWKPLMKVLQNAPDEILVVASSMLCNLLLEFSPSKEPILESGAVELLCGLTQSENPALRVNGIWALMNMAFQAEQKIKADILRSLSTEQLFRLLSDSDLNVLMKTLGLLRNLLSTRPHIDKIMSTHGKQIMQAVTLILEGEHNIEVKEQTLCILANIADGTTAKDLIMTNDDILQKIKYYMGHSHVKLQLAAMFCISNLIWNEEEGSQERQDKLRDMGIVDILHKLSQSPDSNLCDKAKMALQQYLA
UniProt P98171: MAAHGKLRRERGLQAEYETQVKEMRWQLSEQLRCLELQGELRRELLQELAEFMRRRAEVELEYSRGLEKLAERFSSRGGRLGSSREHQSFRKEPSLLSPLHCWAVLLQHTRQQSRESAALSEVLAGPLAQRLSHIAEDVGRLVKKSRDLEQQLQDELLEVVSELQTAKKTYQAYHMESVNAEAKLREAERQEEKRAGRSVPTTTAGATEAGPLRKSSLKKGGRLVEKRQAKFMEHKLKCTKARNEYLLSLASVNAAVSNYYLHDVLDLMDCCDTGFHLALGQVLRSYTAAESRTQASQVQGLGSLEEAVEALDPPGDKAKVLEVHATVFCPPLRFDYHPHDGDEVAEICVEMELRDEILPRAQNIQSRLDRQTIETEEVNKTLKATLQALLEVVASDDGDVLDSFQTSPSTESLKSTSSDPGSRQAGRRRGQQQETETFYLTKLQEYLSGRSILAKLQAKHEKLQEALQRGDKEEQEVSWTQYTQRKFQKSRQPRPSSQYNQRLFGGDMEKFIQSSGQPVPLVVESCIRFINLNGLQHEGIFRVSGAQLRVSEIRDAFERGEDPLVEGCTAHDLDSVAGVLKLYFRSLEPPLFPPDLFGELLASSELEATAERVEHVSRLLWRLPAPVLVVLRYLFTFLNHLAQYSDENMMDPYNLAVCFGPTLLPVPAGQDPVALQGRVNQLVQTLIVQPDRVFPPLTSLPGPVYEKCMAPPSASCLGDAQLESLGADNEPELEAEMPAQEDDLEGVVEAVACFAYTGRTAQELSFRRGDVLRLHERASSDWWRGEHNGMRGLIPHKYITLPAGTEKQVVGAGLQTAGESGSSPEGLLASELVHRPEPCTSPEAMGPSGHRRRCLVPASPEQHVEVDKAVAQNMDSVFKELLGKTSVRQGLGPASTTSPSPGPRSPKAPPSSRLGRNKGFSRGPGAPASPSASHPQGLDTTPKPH

The other results are listed elsewhere or left out.
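Also: competitive profiling in live THP-1 cells: cysteine peptides tagged with an iodoacetamide desthiobiotin (IA-DTB) probe, intensity after compound treatment relative to DMSO-treated cells.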

Compound in this experiment: Cc1cc(ccc1-c1ccccc1)C(=O)N1CCCN(CC1)C(=O)CCl [compound 10]
As to the kind of experiment: probe-labelled cysteine peptide fold change vs DMSO (competition) (log2 fold change); higher = less target engagement (more negative = stronger competition). The settings on record: 10 µM; THP-1; incubation time: 4 h.
For “APRT_P07741_83_GFLFGPSLAQELGLGCVLIRK (UniProt P07741)”, the “probe-labelled cysteine peptide fold change” value was -0.0219.

With “ARMCX3_Q9UH62_52_MAEGGSGDVDDAGDCSGAR (UniProt Q9UH62)”, the “probe-labelled cysteine peptide fold change” value is -0.34. Next, “ARHGEF2_Q92974_68+71_EALICPTCNVTIHNR (UniProt Q92974)”: -0.0269; “ARHGEF18_Q6ZSZ5_295_ECVNGHQLLQGTFSGPSSCPLCGKPFLSSASLK (UniProt Q6ZSZ5)”: -0.0564. Take “ARHGEF2_Q92974_56_YTNGHLFTTISVSGMTMCYACNK (UniProt Q92974)”: the “probe-labelled cysteine peptide fold change” value was -0.111. Take “ARHGEF1_Q92888_537_FCAFVQEAESRPR (UniProt Q92888)”: the “probe-labelled cysteine peptide fold change” value stood at 0.00956. With “ARIH2_O95376_326_HDFCWMCLGDWK (UniProt O95376)”, the “probe-labelled cysteine peptide fold change” value was 0.163. In the case of “ARHGAP17_Q68EM7_305_AALDCSTSHLDEFYSDPHAVAGALK (UniProt Q68EM7)”, the “probe-labelled cysteine peptide fold change” value was -0.0902. With “ARHGAP45_Q92619_136_ECVLRDDLLEAR (UniProt Q92619)”, the “probe-labelled cysteine peptide fold change” value is -0.216. As to “ARL3_P36405_118_LSCVPVLIFANK (UniProt P36405)”, the “probe-labelled cysteine peptide fold change” value was -0.0174. Next, “ARHGEF18_Q6ZSZ5_692_QLHLEGMLCWK (UniProt Q6ZSZ5)”: -0.117.

For “ARHGAP18_Q8N392_323_DSGLFCVPLTALLEQDQR (UniProt Q8N392)”, the “probe-labelled cysteine peptide fold change” value was -0.0472. Turning to “ARPC1B_O15143_70_IVTCGTDR (UniProt O15143)”, the “probe-labelled cysteine peptide fold change” value stood at 0.00133. Turning to “ARIH2_O95376_270_QMYHAPTDCATIR (UniProt O95376)”, the “probe-labelled cysteine peptide fold change” value stood at 0.104. For the target “APPL1_Q9UKG1_549_MTESHLLVTCDCLK (UniProt Q9UKG1)”, the “probe-labelled cysteine peptide fold change” value was 0.194. As for “ARHGEF2_Q92974_306_RQALCPGSTR (UniProt Q92974)”, the figure is 0.0442; as for “ARHGDIB_P52566_76_LTLVCESAPGPITMDLTGDLEALKK (UniProt P52566)”, 0.337. In the case of “ARHGAP17_Q68EM7_190_EEMDEAGNKVEQCK (UniProt Q68EM7)”, the “probe-labelled cysteine peptide fold change” value was 0.0864. Take “ARHGEF6_Q15052_564_TSSSSCSAHSSFSSTGQPR (UniProt Q15052)”: the “probe-labelled cysteine peptide fold change” value amounted to 0.088. For “ARMC8_Q8IUR7_3_ACLLETPIR (UniProt Q8IUR7)”, the “probe-labelled cysteine peptide fold change” value turned out to be 0.0508. On to “ARIH1_Q9Y4X5_304_QFCFNCGENWHDPVK (UniProt Q9Y4X5)”, for which the “probe-labelled cysteine peptide fold change” value came out at 0.0542. As for “ARRB1_P49407_59_RVYVTLTCAFR (UniProt P49407)”, the figure is -0.301; as for “ARHGAP27_Q6ZUM4_703_DQVFGCALAALCER (UniProt Q6ZUM4)”, 0.0728. As to “ARHGEF10_O15013_959_ILCMLYVPVEEK (UniProt O15013)”, the “probe-labelled cysteine peptide fold change” value turned out to be 0.178. On to “ARHGAP45_Q92619_324_IAHNCR (UniProt Q92619)”, for which the “probe-labelled cysteine peptide fold change” value turned out to be 0.112. Take “ARHGAP4_P98171_569_GEDPLVEGCTAHDLDSVAGVLK (UniProt P98171)”: the “probe-labelled cysteine peptide fold change” value was -0.341. Next, “APPL1_Q9UKG1_570_LTFPLPCVVLYATHQENK (UniProt Q9UKG1)”: -0.352.

With “ARMC8_Q8IUR7_264_CLTYMCR (UniProt Q8IUR7)”, the “probe-labelled cysteine peptide fold change” value worked out at 0.163. Consider “ARID1B_Q8NFD5_2074_LVLETLCK (UniProt Q8NFD5)”, for which the “probe-labelled cysteine peptide fold change” value stood at 0.4. Consider ARNT_P27540_265_RSFICR (UniProt P27540), for which the “probe-labelled cysteine peptide fold change” value is 0.145. Take “ARHGEF2_Q92974_478_LIHDGCLLWK (UniProt Q92974)”: the “probe-labelled cysteine peptide fold change” value is -0.108.

Turning to “ARL2_P36404_153_SHHWCIQGCSAVTGENLLPGIDWLLDDISSR (UniProt P36404)”, the “probe-labelled cysteine peptide fold change” value was found to be 0.531. For “ARHGEF12_Q9NZN5_921_FQTFVQDAESNPLCR (UniProt Q9NZN5)”, the “probe-labelled cysteine peptide fold change” value stood at 0.114. Consider “ARPC2_O15144_120_RNCFASVFEK (UniProt O15144)”, for which the “probe-labelled cysteine peptide fold change” value was -0.0863. As to “ARHGAP4_P98171_102_KEPSLLSPLHCWAVLLQHTR (UniProt P98171)”, the “probe-labelled cysteine peptide fold change” value amounted to 0.073. As for “ARPC1B_O15143_346_CSQFCTTGMDGGMSIWDVK (UniProt O15143)”, the figure is -0.124; as for “ARHGEF2_Q92974_342_TYSEFCSR (UniProt Q92974)”, 0.0873; as for “ARHGEF40_Q8TER5_1262_GCEIDLK (UniProt Q8TER5)”, -0.15.

For the target “ARHGEF6_Q15052_57+66_FCLDPQTEADCINNINDFLK (UniProt Q15052)”, the “probe-labelled cysteine peptide fold change” value worked out at 0.059. As for “AQR_O60306_997_SYEEDMEIAEGCFR (UniProt O60306)”, the figure is 0.122.
